The chains behind the UniProt entries cited, without tags or fusion partners.
UniProt P08151: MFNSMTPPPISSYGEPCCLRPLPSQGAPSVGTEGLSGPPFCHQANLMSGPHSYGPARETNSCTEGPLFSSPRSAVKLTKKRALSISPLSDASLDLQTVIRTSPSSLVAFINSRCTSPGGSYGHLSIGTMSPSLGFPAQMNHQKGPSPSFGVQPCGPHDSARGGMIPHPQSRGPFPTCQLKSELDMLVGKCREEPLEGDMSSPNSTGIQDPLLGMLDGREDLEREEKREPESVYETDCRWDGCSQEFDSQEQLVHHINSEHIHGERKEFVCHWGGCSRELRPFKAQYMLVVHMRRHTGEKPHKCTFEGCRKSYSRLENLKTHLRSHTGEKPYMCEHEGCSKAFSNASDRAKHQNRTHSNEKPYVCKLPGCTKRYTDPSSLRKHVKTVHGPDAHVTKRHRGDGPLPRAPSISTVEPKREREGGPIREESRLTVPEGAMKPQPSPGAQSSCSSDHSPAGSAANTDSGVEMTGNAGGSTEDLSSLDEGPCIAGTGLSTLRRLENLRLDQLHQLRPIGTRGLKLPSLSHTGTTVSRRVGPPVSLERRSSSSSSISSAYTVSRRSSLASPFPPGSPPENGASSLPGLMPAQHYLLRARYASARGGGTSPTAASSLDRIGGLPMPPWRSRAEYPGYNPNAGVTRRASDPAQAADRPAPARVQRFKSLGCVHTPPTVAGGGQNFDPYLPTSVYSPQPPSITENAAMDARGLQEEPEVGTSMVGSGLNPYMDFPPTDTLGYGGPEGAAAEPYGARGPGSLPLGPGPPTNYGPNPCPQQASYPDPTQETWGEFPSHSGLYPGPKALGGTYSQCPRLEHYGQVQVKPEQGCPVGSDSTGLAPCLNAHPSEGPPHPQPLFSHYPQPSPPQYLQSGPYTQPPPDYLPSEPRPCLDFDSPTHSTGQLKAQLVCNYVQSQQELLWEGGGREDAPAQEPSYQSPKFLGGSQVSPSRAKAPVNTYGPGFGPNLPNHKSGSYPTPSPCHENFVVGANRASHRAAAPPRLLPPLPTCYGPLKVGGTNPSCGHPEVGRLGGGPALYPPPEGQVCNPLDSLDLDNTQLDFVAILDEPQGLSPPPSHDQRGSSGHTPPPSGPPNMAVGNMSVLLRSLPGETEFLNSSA
UniProt Q9BQA1: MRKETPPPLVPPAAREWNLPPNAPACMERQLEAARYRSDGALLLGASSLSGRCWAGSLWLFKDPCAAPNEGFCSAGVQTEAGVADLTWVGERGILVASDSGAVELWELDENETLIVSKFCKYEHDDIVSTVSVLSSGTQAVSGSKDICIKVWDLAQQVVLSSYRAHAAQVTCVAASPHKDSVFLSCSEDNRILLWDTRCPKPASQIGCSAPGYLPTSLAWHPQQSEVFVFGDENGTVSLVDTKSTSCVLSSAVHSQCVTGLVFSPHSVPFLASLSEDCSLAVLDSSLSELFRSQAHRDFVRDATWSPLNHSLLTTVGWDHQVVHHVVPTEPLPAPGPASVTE

According to paper PMC6338668:

Biological target: GLI1 with HA and FLAG tandem affinity tags (UniProt P08151)
Test: affinity purification with mass spectrometry; tandem affinity purification of HA-FLAG-GLI1 from the cytoplasmic fraction of stable HEK293 cells: anti-FLAG M2 agarose, FLAG peptide elution, anti-HA agarose, HA peptide elution; SDS-PAGE, silver staining, bands sequenced by mass spectrometry

binding: binds
Substance: methylosome protein 50 (MEP50), endogenous in HEK293 cells (from UniProt Q9BQA1 1-342)

These are yes or no findings as the source states them, for the method shown. In cells and extracts the contact can be indirect. A yes stands for co-enrichment or nearness to the bait. Other partners may have been found.
